# Laboratory results: the supplement of paper PMC11006884
# Sequences of proteins named here, by UniProt entry; tags and fusion partners are left off. A change or cut given only in a name is not applied to a line headed by its entry.
# UniProt P43246, whole entry, looked up: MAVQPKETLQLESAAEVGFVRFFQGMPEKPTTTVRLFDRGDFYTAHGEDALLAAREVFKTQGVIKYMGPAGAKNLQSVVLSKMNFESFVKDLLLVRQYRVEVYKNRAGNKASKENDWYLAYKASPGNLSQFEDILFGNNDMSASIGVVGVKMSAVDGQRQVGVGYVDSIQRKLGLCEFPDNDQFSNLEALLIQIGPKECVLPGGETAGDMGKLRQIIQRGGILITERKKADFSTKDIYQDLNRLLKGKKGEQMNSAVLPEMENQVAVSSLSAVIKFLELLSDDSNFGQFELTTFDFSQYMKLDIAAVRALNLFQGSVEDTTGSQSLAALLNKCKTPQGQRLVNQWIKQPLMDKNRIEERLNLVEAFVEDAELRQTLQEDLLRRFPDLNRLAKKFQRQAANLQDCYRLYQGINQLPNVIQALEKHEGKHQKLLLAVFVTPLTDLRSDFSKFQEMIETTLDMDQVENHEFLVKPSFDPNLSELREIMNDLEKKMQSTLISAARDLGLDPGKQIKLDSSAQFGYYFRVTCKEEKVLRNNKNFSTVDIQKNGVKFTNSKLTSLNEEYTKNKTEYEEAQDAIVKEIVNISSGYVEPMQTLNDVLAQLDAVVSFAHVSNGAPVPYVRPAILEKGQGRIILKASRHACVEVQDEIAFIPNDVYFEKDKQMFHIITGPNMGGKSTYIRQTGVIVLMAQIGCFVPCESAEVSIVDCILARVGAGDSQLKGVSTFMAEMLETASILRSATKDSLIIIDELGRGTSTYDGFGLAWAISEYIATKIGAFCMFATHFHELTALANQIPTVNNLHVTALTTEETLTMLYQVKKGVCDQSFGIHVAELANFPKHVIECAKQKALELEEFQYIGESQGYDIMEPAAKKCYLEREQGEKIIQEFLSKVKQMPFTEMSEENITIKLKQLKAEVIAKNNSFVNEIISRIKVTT
# UniProt P49327, whole entry, looked up: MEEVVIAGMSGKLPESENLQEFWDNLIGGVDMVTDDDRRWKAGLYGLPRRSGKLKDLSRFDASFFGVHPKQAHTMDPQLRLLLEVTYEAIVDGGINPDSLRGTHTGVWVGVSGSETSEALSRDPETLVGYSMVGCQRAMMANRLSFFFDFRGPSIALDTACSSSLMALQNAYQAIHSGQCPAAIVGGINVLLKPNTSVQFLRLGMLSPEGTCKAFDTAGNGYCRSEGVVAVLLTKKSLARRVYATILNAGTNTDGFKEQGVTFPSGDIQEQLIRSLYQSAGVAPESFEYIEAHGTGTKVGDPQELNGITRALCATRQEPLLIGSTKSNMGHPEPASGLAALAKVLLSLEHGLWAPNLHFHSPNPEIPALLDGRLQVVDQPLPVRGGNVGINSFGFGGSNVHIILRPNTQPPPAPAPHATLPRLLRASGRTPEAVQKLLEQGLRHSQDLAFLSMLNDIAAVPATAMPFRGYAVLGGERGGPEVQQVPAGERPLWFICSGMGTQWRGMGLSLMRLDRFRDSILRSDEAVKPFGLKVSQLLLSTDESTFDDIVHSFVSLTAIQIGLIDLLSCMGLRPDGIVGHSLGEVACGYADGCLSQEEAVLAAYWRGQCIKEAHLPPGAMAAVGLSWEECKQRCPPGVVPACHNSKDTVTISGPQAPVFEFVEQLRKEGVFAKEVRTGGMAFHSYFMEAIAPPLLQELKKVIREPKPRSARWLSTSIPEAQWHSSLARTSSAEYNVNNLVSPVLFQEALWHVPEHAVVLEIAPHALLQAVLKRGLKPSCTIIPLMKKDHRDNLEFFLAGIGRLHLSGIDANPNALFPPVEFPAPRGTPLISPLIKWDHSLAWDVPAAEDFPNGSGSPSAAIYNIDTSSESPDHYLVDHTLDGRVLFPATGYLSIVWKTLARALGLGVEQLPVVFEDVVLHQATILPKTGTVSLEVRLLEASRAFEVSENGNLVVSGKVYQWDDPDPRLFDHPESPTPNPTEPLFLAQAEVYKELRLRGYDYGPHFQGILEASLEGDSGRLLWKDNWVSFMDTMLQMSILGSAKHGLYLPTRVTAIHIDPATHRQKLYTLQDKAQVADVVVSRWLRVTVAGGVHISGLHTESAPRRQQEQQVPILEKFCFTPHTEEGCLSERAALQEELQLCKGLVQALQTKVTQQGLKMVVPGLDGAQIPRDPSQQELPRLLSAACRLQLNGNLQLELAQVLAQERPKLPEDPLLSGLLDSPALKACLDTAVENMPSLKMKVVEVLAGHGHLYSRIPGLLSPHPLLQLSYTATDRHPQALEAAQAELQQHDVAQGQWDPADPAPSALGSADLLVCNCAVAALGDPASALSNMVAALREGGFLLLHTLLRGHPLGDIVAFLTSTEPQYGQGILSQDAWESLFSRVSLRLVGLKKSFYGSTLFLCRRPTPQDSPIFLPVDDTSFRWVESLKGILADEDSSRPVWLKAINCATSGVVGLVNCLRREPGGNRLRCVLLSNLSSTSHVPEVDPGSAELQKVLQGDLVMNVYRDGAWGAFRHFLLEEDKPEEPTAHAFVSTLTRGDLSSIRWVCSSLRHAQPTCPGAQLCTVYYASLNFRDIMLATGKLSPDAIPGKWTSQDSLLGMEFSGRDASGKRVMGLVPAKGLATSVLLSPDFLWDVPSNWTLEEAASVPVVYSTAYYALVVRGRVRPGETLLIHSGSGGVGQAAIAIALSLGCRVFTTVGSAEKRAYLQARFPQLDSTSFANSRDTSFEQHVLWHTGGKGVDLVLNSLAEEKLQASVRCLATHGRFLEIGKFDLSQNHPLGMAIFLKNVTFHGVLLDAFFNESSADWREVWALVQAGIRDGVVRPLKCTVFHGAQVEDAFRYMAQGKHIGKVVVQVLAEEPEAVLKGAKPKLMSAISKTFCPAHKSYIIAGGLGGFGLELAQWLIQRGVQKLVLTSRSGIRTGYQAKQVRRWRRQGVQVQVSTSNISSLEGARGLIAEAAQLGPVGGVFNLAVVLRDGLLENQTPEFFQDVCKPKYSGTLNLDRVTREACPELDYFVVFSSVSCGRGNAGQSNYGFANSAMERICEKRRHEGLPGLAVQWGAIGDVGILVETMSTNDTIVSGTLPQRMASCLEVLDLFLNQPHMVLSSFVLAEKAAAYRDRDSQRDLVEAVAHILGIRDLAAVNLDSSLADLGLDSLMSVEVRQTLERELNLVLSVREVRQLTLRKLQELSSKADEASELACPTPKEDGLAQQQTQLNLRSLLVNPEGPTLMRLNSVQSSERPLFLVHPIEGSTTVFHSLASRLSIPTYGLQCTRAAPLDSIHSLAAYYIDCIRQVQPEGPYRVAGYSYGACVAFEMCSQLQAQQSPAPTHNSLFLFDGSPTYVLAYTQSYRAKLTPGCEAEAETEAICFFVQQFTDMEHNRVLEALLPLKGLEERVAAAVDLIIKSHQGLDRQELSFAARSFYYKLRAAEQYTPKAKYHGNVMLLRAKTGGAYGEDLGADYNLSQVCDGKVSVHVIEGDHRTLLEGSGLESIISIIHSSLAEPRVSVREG
# UniProt P46109: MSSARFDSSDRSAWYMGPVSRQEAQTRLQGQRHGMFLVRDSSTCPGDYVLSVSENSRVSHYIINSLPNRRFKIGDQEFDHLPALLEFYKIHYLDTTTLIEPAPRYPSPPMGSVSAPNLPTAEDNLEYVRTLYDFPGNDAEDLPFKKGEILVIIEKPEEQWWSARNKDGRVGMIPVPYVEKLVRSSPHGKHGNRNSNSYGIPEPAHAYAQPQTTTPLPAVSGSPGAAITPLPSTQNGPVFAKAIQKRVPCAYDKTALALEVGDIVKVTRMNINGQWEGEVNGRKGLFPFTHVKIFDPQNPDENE
# UniProt P49368: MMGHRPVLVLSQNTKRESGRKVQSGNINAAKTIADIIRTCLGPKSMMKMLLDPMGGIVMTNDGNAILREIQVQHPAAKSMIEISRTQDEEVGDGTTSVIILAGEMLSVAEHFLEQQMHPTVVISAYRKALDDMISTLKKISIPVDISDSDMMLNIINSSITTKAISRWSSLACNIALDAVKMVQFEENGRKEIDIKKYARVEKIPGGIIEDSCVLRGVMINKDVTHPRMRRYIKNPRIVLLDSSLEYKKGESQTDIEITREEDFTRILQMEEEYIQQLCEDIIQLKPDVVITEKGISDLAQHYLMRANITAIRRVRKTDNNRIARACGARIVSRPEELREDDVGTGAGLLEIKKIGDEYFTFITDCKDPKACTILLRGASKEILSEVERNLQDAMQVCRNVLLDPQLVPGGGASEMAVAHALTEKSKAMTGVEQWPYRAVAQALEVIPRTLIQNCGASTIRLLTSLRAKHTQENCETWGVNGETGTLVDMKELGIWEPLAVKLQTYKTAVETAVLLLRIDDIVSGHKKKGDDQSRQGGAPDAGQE
# UniProt P49336: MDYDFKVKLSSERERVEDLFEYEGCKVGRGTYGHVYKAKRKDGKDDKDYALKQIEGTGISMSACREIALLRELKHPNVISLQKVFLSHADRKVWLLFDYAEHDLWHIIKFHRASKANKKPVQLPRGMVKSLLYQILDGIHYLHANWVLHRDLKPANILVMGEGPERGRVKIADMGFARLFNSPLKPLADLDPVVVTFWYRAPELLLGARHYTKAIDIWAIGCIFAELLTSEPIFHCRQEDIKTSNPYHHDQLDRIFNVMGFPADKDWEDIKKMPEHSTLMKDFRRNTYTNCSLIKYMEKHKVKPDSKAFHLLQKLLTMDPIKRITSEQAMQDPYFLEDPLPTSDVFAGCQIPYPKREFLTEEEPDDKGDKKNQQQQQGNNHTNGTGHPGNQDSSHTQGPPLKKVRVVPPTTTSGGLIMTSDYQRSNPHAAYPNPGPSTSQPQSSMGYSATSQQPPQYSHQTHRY
# UniProt P49419: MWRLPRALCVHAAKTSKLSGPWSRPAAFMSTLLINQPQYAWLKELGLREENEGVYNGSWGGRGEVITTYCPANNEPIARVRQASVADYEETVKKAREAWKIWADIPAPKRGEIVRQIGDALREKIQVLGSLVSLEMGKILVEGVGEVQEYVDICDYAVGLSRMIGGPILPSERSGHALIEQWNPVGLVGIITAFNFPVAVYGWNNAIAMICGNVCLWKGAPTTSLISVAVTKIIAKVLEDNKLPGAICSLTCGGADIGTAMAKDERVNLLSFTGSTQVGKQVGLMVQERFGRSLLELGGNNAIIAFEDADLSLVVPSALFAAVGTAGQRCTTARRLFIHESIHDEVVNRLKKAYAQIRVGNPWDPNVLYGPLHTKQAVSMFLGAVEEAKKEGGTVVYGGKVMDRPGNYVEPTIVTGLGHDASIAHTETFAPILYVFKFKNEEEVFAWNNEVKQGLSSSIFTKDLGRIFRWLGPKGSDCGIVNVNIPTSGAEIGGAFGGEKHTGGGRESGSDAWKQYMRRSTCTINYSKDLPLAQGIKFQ
# UniProt P49459, whole entry, looked up: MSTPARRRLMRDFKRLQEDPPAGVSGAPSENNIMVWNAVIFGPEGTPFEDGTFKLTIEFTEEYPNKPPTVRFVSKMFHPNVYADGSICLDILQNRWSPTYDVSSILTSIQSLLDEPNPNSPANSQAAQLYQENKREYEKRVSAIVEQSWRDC
# UniProt P46063: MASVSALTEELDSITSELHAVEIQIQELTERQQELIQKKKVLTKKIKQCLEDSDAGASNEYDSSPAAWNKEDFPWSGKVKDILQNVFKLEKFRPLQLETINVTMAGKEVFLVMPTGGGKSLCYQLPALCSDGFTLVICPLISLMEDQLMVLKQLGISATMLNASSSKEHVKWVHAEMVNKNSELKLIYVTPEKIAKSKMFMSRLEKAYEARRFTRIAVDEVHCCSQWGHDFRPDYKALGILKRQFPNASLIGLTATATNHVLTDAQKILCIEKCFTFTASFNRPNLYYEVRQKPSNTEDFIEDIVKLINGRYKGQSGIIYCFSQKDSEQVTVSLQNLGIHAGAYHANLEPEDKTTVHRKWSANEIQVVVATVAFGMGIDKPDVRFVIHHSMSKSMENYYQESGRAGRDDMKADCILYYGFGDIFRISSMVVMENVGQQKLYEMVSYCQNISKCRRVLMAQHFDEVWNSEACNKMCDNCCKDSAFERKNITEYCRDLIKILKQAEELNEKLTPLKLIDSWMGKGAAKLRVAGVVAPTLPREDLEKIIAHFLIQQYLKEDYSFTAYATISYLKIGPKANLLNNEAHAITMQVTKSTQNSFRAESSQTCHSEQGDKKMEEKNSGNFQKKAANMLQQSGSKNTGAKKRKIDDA
# UniProt P49753: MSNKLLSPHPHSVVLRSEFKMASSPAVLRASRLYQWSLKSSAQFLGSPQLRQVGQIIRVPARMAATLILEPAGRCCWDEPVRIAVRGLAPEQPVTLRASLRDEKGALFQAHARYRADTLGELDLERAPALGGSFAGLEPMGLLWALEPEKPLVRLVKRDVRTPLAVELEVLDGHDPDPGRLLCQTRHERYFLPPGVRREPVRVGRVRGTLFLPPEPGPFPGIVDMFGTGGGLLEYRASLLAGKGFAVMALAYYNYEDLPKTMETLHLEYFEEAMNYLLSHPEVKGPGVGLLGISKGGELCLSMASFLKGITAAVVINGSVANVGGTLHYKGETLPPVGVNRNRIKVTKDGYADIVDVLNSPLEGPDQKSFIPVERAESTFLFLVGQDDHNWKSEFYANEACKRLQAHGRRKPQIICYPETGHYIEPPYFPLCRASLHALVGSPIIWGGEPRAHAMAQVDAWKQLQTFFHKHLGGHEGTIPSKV
# The list shows a part of the results, in another mix than the full data.
# Compound: COC(=O)C#Cc1ccccc1 [methyl 3-phenylpropiolate]
# Test: log2 ratio of iodoacetamide-alkyne labeling of the cysteine site, DMSO over compound (competition); higher = stronger covalent engagement of the cysteine by the compound, active = 1 or more
# Details: 500 µM; treatment time 1 h; system: HEK293T cell lysate
# Outline: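 For each cysteine, the log2 competition ratio is mean control-channel reporter intensity over mean compound-channel reporter intensity. HEK293T lysate (2 mg/mL) was exposed to vehicle or electrophile (500 µM, 1 h, ambient temperature), labelled with iodoacetamide alkyne (1 h), clicked to sCIP-TMT reagents, digested overnight with trypsin at 37 °C, streptavidin-enriched and analysed by Orbitrap Eclipse LC-MS/MS with FAIMS and FragPipe. Cysteines quantified in only one of three replicates, each with duplicate channels, were excluded.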
row,Target,log2 ratio of iodoacetamide-alkyne labeling
1,GCLC C553 (UniProt P48506),inactive: -0.0336
2,MSH2 C843 (UniProt P43246),inactive: 0.362
3,UniProt P46734_C29,inactive: 0.516
4,MAP1B C2361 (UniProt P46821),inactive: 0.49
5,METAP2 C298 (UniProt P50579),inactive: 0.1
6,METAP2 C290 (UniProt P50579),inactive: 0.611
7,FASN C779 (UniProt P49327),inactive: 0.317
8,MKI67 C2206 (UniProt P46013),inactive: 0.603
9,MAP1B C190 (UniProt P46821),inactive: 0.39
10,CRKL C249 (UniProt P46109),active: 1.61
11,HCFC1 C1953 (UniProt P51610),inactive: 0.123
12,IRAK1 C43 (UniProt P51617),inactive: 0.531
13,LRBA C1228 (UniProt P50851),inactive: 0.296
14,RANBP2 C2407 (UniProt P49792),inactive: 0.116
15,AARS C723 (UniProt P49588),inactive: 0.264
16,CCT3 C455 (UniProt P49368),inactive: 0.0979
17,CDK8 C25 (UniProt P49336),inactive: 0.154
18,IQGAP1 C781 (UniProt P46940),inactive: 0.821
19,PSMD8 C112 (UniProt P48556),inactive: 0.231

# Reformatted with tabs: entries from further up.
row	Target	log2 ratio of iodoacetamide-alkyne labeling
8	MKI67 C2206 (UniProt P46013)	inactive: 0.603
16	CCT3 C455 (UniProt P49368)	inactive: 0.0979

# (list continues)

row,Target,log2 ratio of iodoacetamide-alkyne labeling
1,RPS5 C155 (UniProt P46782),inactive: 0.277
2,CBX5 C133 (UniProt P45973),inactive: 0.17
3,CCT3 C372 (UniProt P49368),inactive: 0.382
4,ALDH7A1 C478 (UniProt P49419),inactive: 0.442
5,MRPL19 C248 (UniProt P49406),inactive: 0.128
6,UniProt P49459_C88,inactive: 0.243
7,CCT5 C493 (UniProt P48643),inactive: 0.227
8,FASN C1459 (UniProt P49327),inactive: 0.294
9,RECQL C49 (UniProt P46063),inactive: 0.0739
10,ERF C189 (UniProt P50548),inactive: 0.37
11,RANBP2 C220 (UniProt P49792),inactive: 0.364
12,UniProt P49840_C262,inactive: 0.12
13,UniProt P49753_C401,inactive: 0.0763
14,UniProt P49459_C152,inactive: 0.0318
15,UniProt P45985_C246,inactive: 0.0512
16,USP5 C195 (UniProt P45974),inactive: 0.206
17,GMPS C554 (UniProt P49915),inactive: 0.0582
18,NDUFV1 C187 (UniProt P49821),inactive: -0.109
